This note sets out measurements from publication doi:10.1101/726224 (bioRxiv, 2019).

Sequences of proteins named here, by UniProt entry; tags and fusion partners are left off.
UniProt P14635, whole entry: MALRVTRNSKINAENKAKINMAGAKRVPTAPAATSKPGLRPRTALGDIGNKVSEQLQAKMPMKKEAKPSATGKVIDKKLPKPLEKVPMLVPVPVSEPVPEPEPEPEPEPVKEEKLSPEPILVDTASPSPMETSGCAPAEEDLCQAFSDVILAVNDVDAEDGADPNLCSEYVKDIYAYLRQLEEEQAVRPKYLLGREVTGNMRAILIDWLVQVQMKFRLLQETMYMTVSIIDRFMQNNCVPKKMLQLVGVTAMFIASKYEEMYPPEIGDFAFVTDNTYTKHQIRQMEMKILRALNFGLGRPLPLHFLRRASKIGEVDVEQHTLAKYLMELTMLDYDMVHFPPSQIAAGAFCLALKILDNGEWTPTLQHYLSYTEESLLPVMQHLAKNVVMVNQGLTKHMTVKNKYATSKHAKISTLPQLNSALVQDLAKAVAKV

These are yes or no findings as the source states them, for the method shown. Some results given as binding are weak or reduced against the parent protein; the word gives no strength. For some assays here: Tags and fused reporters may be left off the sequences shown.

Test [1] addresses T1, MBP-MAD1^41-62 (human) (UniProt Q9Y6D9).
T1 sequence: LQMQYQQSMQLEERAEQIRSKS
Description: SEC. (Size exclusion chromatography separates by hydrodynamic size, large species first.)

In test [2] the target is T2, LacI-MAD1-FL (full length: aa1-718) (human) (UniProt Q9Y6D9).
T2 sequence: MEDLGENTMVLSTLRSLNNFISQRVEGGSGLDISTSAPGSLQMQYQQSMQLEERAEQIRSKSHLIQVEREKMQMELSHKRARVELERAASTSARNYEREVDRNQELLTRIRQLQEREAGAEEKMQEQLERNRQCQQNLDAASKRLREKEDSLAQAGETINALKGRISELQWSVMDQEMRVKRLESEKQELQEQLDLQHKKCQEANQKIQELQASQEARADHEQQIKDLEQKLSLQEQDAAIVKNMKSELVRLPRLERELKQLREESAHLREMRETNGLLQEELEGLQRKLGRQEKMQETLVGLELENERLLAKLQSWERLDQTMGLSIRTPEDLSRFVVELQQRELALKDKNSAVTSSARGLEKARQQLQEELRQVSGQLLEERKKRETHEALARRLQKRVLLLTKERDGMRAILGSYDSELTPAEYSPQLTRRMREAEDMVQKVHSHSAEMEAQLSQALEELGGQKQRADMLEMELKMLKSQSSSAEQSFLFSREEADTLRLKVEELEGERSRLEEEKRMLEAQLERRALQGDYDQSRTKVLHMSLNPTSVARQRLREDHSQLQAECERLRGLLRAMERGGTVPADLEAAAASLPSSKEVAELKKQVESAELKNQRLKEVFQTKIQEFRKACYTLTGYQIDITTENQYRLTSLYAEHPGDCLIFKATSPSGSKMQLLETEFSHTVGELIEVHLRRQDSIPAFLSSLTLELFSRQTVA
Description: LacO/LacI tethering and co-recruitment.

The target in test [3] is T3, MBP-MAD1^1-92 (human) (UniProt Q9Y6D9).
T3 sequence: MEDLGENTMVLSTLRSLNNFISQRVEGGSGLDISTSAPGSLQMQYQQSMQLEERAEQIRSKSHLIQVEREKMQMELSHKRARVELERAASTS
Description: SEC.

As to “CDK1:Cyclin B1^165-433 complex (from UniProt P06493;P14635)”, in test [1], the binding result is reported as “binds”.

As for “Cyclin B1 in U2OS cells (immunofluorescence) (from UniProt P14635 1-433)”, in test [2], the binding entry is “binds”.

In the case of “Cyclin B1-mCherry (from UniProt P14635 1-433)”, the binding result in test [2] was “binds”.

With “GST-CDK1:Cyclin B1^165-433 complex (from UniProt P06493;P14635)”, the binding entry in test [3] and in test [1] was “binds” each time.
